# Reference: the supplement of paper PMC6411743
# By UniProt entry, the sequences of proteins in these tests, tags left out. Where a name states a change or a piece, a line headed by the entry shows the natural chain unless it says otherwise.
# UniProt Q9UKM7: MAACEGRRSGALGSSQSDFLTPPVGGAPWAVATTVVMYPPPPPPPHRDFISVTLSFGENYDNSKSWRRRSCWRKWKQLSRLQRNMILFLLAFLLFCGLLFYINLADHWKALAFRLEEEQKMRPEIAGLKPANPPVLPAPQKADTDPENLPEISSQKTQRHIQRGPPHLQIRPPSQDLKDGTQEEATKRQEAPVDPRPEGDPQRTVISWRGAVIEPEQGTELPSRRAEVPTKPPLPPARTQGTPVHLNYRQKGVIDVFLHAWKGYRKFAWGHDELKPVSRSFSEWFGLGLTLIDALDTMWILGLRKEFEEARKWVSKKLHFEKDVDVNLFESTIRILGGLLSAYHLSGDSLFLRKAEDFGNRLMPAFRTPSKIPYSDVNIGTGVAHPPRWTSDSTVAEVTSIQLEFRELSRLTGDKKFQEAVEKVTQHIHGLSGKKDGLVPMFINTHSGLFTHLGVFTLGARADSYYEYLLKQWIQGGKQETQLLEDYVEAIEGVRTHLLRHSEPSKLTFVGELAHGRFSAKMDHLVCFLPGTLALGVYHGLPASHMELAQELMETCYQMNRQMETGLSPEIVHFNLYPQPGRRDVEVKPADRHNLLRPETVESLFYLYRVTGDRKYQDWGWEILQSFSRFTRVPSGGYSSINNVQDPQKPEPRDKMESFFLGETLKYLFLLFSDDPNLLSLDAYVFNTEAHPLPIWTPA
# UniProt Q9UK45: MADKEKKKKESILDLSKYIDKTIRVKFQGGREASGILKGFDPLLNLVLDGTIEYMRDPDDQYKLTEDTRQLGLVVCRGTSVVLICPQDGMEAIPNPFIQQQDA
# UniProt Q9P2K8: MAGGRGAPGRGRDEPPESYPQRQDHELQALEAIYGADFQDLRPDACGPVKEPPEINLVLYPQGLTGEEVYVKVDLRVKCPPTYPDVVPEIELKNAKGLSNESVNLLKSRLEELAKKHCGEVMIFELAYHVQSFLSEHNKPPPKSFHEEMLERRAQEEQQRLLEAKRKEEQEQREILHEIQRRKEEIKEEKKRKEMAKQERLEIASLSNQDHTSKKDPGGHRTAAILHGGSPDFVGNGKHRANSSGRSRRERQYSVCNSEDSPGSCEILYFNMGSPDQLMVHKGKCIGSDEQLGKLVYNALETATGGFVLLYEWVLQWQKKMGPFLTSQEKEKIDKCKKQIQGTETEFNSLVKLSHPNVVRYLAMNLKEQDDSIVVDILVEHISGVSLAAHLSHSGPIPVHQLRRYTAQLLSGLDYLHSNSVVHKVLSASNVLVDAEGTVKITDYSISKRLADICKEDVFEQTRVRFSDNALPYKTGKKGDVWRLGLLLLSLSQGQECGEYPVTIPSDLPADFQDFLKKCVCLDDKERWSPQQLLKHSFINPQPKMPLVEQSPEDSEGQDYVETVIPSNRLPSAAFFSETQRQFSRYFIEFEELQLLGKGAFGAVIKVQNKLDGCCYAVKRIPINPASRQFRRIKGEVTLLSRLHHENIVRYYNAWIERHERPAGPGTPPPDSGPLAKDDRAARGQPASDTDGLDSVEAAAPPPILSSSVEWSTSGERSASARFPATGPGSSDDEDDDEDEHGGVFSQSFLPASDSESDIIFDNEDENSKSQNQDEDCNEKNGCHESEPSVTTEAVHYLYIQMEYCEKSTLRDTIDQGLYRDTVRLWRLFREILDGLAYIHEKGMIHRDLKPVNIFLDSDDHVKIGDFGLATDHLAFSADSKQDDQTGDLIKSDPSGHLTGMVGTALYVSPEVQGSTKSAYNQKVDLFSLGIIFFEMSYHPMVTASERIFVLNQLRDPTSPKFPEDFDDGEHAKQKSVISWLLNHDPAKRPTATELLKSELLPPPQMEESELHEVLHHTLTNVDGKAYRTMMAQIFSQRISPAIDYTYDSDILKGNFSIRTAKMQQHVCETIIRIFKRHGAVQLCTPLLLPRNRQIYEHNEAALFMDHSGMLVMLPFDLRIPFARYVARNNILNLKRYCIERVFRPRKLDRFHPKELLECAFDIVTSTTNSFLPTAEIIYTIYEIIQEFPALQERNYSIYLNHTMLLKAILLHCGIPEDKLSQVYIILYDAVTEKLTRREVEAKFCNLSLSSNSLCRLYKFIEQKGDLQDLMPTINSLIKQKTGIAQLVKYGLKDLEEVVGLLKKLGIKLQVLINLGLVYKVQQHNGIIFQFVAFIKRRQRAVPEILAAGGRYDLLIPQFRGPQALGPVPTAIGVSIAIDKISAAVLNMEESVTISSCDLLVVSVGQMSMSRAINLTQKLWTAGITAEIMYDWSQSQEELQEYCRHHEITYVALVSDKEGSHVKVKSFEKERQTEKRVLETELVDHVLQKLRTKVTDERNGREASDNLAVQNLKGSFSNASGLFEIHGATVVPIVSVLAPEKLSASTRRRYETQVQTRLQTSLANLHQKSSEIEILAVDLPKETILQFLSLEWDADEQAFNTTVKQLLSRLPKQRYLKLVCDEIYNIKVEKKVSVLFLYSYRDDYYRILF
# UniProt Q9Y223: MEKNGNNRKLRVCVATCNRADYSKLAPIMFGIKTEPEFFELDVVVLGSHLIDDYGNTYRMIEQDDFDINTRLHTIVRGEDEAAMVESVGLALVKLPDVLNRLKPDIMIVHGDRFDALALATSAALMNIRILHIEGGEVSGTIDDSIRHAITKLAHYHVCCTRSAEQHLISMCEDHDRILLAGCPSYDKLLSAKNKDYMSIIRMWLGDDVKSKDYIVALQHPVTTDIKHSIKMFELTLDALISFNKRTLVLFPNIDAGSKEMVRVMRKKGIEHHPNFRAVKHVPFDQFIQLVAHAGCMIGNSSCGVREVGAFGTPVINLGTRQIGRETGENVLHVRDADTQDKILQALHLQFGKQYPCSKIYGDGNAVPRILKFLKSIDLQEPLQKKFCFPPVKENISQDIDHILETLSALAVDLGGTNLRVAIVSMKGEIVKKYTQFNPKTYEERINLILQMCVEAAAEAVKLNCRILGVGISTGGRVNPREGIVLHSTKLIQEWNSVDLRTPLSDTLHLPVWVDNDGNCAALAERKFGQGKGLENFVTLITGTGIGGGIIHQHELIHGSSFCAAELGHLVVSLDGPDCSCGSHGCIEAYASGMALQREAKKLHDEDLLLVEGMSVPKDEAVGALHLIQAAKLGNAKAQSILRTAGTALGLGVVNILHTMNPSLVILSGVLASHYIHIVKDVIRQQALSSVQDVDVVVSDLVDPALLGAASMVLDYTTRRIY
# UniProt Q9UP95: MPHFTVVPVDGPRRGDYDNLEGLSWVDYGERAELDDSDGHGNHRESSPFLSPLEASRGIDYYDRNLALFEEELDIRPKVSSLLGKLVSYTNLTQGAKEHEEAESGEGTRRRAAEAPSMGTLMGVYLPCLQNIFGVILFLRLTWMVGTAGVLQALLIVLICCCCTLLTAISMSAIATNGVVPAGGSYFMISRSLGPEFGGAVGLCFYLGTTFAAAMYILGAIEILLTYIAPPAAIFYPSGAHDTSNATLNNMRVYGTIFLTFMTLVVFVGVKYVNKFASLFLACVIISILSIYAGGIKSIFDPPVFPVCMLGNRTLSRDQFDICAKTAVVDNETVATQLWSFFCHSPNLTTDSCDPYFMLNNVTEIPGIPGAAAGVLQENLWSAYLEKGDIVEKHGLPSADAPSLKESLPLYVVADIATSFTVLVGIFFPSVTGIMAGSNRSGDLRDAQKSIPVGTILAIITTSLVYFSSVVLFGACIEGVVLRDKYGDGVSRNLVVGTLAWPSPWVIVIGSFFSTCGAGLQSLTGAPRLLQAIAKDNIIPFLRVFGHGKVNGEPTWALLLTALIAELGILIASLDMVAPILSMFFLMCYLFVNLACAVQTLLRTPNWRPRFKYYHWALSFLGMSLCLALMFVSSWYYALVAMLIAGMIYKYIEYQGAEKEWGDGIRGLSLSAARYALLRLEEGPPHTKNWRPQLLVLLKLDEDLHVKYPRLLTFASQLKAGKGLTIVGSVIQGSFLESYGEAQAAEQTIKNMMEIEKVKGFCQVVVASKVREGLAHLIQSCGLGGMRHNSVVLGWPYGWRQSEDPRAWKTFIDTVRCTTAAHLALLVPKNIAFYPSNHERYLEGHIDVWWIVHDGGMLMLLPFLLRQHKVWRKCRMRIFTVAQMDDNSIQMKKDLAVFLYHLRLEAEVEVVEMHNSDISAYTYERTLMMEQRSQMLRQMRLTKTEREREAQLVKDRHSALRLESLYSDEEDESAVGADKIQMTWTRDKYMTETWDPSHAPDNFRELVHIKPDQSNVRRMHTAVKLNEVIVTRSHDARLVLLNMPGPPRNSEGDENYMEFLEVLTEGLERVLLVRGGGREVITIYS
# UniProt Q9UBS0: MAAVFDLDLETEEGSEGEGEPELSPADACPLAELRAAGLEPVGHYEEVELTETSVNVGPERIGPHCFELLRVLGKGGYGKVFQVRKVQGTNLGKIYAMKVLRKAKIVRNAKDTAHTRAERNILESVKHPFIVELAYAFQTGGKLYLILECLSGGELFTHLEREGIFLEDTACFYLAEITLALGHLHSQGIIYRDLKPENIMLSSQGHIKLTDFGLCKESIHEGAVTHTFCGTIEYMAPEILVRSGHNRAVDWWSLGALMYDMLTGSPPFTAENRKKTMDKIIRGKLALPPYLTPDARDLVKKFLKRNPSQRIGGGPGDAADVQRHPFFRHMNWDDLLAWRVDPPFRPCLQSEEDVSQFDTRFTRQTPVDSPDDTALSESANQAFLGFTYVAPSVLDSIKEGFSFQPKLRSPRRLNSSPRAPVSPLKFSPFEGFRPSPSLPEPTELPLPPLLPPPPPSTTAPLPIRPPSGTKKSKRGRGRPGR
# UniProt Q9UKK3: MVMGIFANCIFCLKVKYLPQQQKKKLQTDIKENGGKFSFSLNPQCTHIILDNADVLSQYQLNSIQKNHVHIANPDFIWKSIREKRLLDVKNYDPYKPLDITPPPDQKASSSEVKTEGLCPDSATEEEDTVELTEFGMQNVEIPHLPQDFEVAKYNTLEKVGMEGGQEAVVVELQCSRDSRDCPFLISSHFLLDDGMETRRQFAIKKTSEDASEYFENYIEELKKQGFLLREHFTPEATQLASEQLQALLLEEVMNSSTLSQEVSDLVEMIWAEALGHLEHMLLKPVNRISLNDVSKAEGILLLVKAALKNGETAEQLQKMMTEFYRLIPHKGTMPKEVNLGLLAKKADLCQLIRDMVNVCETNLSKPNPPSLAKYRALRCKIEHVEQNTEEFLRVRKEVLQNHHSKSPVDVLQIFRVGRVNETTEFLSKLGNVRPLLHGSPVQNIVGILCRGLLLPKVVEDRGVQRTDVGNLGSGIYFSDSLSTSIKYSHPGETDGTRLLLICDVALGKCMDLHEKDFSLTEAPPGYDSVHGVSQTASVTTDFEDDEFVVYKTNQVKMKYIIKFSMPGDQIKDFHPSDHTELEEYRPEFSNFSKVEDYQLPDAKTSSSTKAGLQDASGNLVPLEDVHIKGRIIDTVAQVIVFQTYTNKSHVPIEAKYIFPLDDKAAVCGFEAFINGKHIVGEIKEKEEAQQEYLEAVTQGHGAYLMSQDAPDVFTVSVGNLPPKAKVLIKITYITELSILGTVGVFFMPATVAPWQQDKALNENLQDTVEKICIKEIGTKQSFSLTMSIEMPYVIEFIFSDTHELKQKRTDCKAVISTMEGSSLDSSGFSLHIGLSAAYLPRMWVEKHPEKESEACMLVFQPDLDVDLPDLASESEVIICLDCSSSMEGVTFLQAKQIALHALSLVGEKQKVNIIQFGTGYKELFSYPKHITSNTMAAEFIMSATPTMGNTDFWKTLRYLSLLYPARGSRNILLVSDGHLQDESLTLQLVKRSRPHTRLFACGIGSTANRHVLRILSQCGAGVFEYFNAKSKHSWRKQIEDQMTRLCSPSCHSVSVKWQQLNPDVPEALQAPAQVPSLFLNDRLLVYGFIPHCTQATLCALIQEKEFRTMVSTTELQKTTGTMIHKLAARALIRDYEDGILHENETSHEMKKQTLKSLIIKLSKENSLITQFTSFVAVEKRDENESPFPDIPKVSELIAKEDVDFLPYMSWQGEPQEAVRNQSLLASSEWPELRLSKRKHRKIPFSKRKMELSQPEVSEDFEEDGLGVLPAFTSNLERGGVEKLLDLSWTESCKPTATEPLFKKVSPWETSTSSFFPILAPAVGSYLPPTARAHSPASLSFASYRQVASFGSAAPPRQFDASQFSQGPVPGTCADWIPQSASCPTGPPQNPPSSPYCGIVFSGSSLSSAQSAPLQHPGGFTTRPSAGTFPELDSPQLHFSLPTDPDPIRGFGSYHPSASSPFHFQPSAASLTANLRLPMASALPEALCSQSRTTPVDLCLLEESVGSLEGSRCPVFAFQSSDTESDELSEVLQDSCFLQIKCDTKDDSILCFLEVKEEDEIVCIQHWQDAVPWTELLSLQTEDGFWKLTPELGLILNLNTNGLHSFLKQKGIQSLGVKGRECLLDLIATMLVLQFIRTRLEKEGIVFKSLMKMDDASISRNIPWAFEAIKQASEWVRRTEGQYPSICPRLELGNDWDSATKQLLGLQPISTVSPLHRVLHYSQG
# ± gives the standard deviation of the averaged measurements. Only a part is listed here, and it is no random draw. Most entries show no effect beyond the scatter of the controls.
# Compound: Nc1ncnc2c1ncn2[C@@H]1O[C@H](COP(=O)(O)OP(=O)(O)OP(=O)(O)O)[C@@H](O)[C@H]1O [adenosine triphosphate]
# Assay: NP40-soluble protein abundance relative to vehicle (solubility fold change) (ratio); higher = more soluble protein in presence of ATP
# Method in brief: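 In three independent experiments, Jurkat crude lysate made by Dounce homogenisation was treated for 10 min at room temperature and then 3 min at 37 °C with eight concentrations ranging from 0.1 to 10 mM. It was then solubilised with 0.8% NP40 plus benzonase for 60 min at 4 °C and ultracentrifuged. The supernatant was TMT-labelled for LC-MS/MS, and each value is the fold change against the detergent-processed vehicle for the same replicate, using vsn-normalised intensities.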
Target,NP40-soluble protein abundance (concentration: 0.1mM),NP40-soluble protein abundance (concentration: 0.5mM),NP40-soluble protein abundance (concentration: 1mM),NP40-soluble protein abundance (concentration: 2mM),NP40-soluble protein abundance (concentration: 4mM),NP40-soluble protein abundance (concentration: 6mM),NP40-soluble protein abundance (concentration: 8mM),NP40-soluble protein abundance (concentration: 10mM)
MAN1B1 (UniProt Q9UKM7),1.01 ± 0.017,1.09 ± 0.033,,,,,,
UniProt Q9UL54-2,1.22 ± 0.092,1.28 ± 0.058,1.29 ± 0.17,1.54 ± 0.35,1.57 ± 0.33,1.67 ± 0.33,1.63 ± 0.24,1.69 ± 0.4
LSM7 (UniProt Q9UK45),0.946 ± 0.022,0.904 ± 0.056,,,,,,
EIF2AK4 (UniProt Q9P2K8),1.04 ± 0.062,1.04 ± 0.058,1.04 ± 0.096,1.02 ± 0.078,1.02 ± 0.071,0.967 ± 0.073,1.03 ± 0.056,1.03 ± 0.082
UniProt Q9UBF8-2,1.01 ± 0.047,0.952 ± 0.028,0.962 ± 0.044,0.961 ± 0.065,0.9581 ± 0.0056,0.938 ± 0.011,0.9049 ± 0.007,0.928 ± 0.026
POLK (UniProt Q9UBT6),0.962 ± 0.057,0.975 ± 0.046,,,,,,
UniProt Q9ULV4 and related entries,0.922 ± 0.05,1 ± 0.097,1.08 ± 0.086,1.16 ± 0.1,1.24 ± 0.11,1.4 ± 0.12,1.43 ± 0.13,1.52 ± 0.16
NOB1 (UniProt Q9ULX3),0.999 ± 0.028,1.05 ± 0.026,1.07 ± 0.023,1.06 ± 0.086,1.03 ± 0.077,1.07 ± 0.13,1.08 ± 0.054,1.05 ± 0.065
ZNFX1 (UniProt Q9P2E3),1.04 ± 0.051,1.03 ± 0.053,,,,,,
UniProt Q9Y223 and related entries,1.03 ± 0.071,1 ± 0.025,,,,,,
WDR3 (UniProt Q9UNX4),1.11 ± 0.09,1.15 ± 0.067,1.28 ± 0.11,1.46 ± 0.1,1.82 ± 0.17,1.97 ± 0.2,2.23 ± 0.2,2.34 ± 0.13
UniProt Q9UP95 and related entries,1.04 ± 0.11,0.956 ± 0.068,0.956 ± 0.1,0.979 ± 0.12,0.964 ± 0.11,1.03 ± 0.058,0.909 ± 0.099,0.989 ± 0.035
UniProt Q9UBS0,1.09 ± 0.034,1.18 ± 0.047,1.1 ± 0.063,1.11 ± 0.082,1.12 ± 0.088,1.05 ± 0.053,1.15 ± 0.14,1.09 ± 0.11
PARP4 (UniProt Q9UKK3),1.09 ± 0.02,1.14 ± 0.067,1.14 ± 0.017,1.15 ± 0.12,1.12 ± 0.083,1.15 ± 0.14,1.14 ± 0.042,1.19 ± 0.085

# As a working copy, part of the list above.
Target,NP40-soluble protein abundance (concentration: 0.1mM),NP40-soluble protein abundance (concentration: 0.5mM),NP40-soluble protein abundance (concentration: 1mM),NP40-soluble protein abundance (concentration: 2mM),NP40-soluble protein abundance (concentration: 4mM),NP40-soluble protein abundance (concentration: 6mM),NP40-soluble protein abundance (concentration: 8mM),NP40-soluble protein abundance (concentration: 10mM)
NOB1 (UniProt Q9ULX3),0.999 ± 0.028,1.05 ± 0.026,1.07 ± 0.023,1.06 ± 0.086,1.03 ± 0.077,1.07 ± 0.13,1.08 ± 0.054,1.05 ± 0.065
ZNFX1 (UniProt Q9P2E3),1.04 ± 0.051,1.03 ± 0.053,,,,,,
